According to article PMC3669024, “Pharmacological Characterization of a 5-HT1-Type Serotonin Receptor in the Red Flour Beetle, Tribolium castaneum” (PLoS ONE, 2013):
Where a name gives a salt, the structure may show the parent alone.

Sequences of proteins named here, by UniProt entry; tags and fusion partners are left off.
UniProt R9ULB8, entry or part of it: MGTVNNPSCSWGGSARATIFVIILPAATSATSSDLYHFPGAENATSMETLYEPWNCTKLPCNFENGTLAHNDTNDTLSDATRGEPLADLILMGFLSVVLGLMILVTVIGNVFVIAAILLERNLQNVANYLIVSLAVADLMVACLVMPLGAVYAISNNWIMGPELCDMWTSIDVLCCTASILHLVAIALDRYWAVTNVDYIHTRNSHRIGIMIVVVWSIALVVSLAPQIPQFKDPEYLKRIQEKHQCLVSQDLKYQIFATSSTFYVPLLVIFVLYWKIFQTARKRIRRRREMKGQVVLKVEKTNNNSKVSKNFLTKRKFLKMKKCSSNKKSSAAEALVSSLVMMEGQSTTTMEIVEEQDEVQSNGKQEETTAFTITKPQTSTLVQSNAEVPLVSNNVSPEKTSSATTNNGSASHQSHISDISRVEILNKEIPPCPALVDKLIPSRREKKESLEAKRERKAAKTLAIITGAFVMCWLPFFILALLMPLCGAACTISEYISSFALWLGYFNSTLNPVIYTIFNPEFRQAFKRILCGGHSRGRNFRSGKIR

Biological target: Trica5-HT1 (Tribolium castaneum, UniProt R9ULB8)
Experiment: Aequorin-luminescence assay, antagonist inhibition of 5-HT mediated activation of Trica5-HT1 in CHO-WTA11 cells
Type: cell-based
Conditions: inhibition of 5-HT (100 nM) mediated activation
Protocol: General binding studies were performed in Chinese hamster ovary (CHO) WTA11 cells stably coexpressing apoaequorin and the promiscuous Gα16. This allowed us to measure the pharmacology independent of the downstream signaling. CHO-PAM28 cells stably expressing apoaequorin, but not the promiscuous Gα16, and human embryonic kidney cells (HEK) 293 cells were used to measure downstream signaling via Ca^2+ and cAMP, respectively. CHO cell lines were provided by Prof. Marc Parmentier (University of Brussels, Belgium) and Dr. Michel Detheux (Euroscreen S.A., Belgium). HEK293 cells were a gift from Prof. Arnd Baumann (Research Centre Jülich, Germany.
Cells were cultured in vitro as monolayers at 37°C, 5% CO2 and high relative humidity, and subcultivated twice a week. […] HEK293 cells were cotransfected with receptor construct (4 µg) and CRE-luciferase construct (2 µg), consisting of the open reading frame of the reporter gene, luciferase, downstream of a multimerized cAMP-response-element (CRE6x), [39]. […]
The transfected CHO cells were detached with phosphate buffered saline (PBS) containing 0.2% EDTA and collected in DMEM/F-12 (without phenol red, with L-glutamine and 10 mM HEPES) (Gibco). The amount of viable cells was determined using the NucleoCounter NC-100+TM (Chemometic). […] Receptor activity was measured as the light emission after adding 50 µl of the cell suspension. […]

IC50: no inhibition
logIC50 (mean ± SEM) (given as negative log values): no inhibition
Compound: CN1CCN2c3ccccc3Cc3ccccc3C2C1 (centres unmarked) [mianserin, mianserin hydrochloride]
